Measurements reported in PubChem BioAssay AID652272 (Drosophila RNAi Screening Center, 2013).

- Screen: 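Genes whose knock-down decreases or increases Hedgehog reporter output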 (primary screen)
- System: Drosophila clone 8 (Cl8) cells
- Reagents: long dsRNA against Drosophila genes
- Measurement: 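Plate reader light from a firefly reporter under a ptc promoter fragment that responds to Hedgehog, with Renilla light as transfection reference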
- Scale: firefly Hh reporter signal: higher = more ptc reporter light; Renilla reference signal: higher = more Renilla control light
- Active means: 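Called a hit if the two-replicate mean z-score lies below -2 or above +3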
- Calls: active = hit: reporter lowered or raised; inactive = not a hit
The screen tested about 21,000 reagents; shown is a random part of those that have a named target and a result. Of all reagents, 503 (2.4%) got an active call. 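Raw plate light values, not normalised; calls rest on replicate z-scores that were not deposited; hits include reporter decreases as well as increases.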 No sequences are given here. Not given: the amount of reagent, the time to read-out.

RfC4 [SID104188483] — firefly Hh reporter signal, replicate 1 = 1.37e5; firefly Hh reporter signal, replicate 2 = 77604; Renilla reference signal, replicate 1 = 5893; Renilla reference signal, replicate 2 = 3741; call = inactive
fax [SID104191137] — firefly Hh reporter signal, replicate 1 = 42880; firefly Hh reporter signal, replicate 2 = 32810; Renilla reference signal, replicate 1 = 3152; Renilla reference signal, replicate 2 = 2183; call = active
Nelf-E [SID104190359] — firefly Hh reporter signal, replicate 1 = 47024; firefly Hh reporter signal, replicate 2 = 49341; Renilla reference signal, replicate 1 = 7228; Renilla reference signal, replicate 2 = 3997; call = inactive
CG3149 [SID104197524] — firefly Hh reporter signal, replicate 1 = 90715; firefly Hh reporter signal, replicate 2 = 88544; Renilla reference signal, replicate 1 = 2214; Renilla reference signal, replicate 2 = 2341; call = inactive
PCID2 [SID104190614] — firefly Hh reporter signal, replicate 1 = 75500; firefly Hh reporter signal, replicate 2 = 58764; Renilla reference signal, replicate 1 = 3877; Renilla reference signal, replicate 2 = 2790; call = inactive
Brd8 [SID104194658] — firefly Hh reporter signal, replicate 1 = 88288; firefly Hh reporter signal, replicate 2 = 1.09e5; Renilla reference signal, replicate 1 = 2123; Renilla reference signal, replicate 2 = 3533; call = inactive
CG31464 [SID104194137] — firefly Hh reporter signal, replicate 1 = 76761; firefly Hh reporter signal, replicate 2 = 1.22e5; Renilla reference signal, replicate 1 = 3169; Renilla reference signal, replicate 2 = 3803; call = inactive
CG17068 [SID104200337] — firefly Hh reporter signal, replicate 1 = 1.50e5; firefly Hh reporter signal, replicate 2 = 1.79e5; Renilla reference signal, replicate 1 = 3250; Renilla reference signal, replicate 2 = 4148; call = inactive
stc [SID104183412] — firefly Hh reporter signal, replicate 1 = 67371; firefly Hh reporter signal, replicate 2 = 45095; Renilla reference signal, replicate 1 = 2937; Renilla reference signal, replicate 2 = 1836; call = inactive
FucTC [SID104200758] — firefly Hh reporter signal, replicate 1 = 6.39e5; firefly Hh reporter signal, replicate 2 = 2.37e5; Renilla reference signal, replicate 1 = 35728; Renilla reference signal, replicate 2 = 5673; call = inactive
lambdaTry [SID104185929] — firefly Hh reporter signal, replicate 1 = 1.38e5; firefly Hh reporter signal, replicate 2 = 51420; Renilla reference signal, replicate 1 = 3527; Renilla reference signal, replicate 2 = 4025; call = inactive
Gip [SID104198459] — firefly Hh reporter signal, replicate 1 = 5.16e5; firefly Hh reporter signal, replicate 2 = 1.13e5; Renilla reference signal, replicate 1 = 4706; Renilla reference signal, replicate 2 = 4706; call = inactive
CG10344 [SID104183858] — firefly Hh reporter signal, replicate 1 = 90449; firefly Hh reporter signal, replicate 2 = 94278; Renilla reference signal, replicate 1 = 1352; Renilla reference signal, replicate 2 = 7004; call = inactive
CG2915 [SID104186634] — firefly Hh reporter signal, replicate 1 = 73949; firefly Hh reporter signal, replicate 2 = 50466; Renilla reference signal, replicate 1 = 3665; Renilla reference signal, replicate 2 = 2307; call = inactive
tx [SID104196723] — firefly Hh reporter signal, replicate 1 = 83213; firefly Hh reporter signal, replicate 2 = 1.02e5; Renilla reference signal, replicate 1 = 2051; Renilla reference signal, replicate 2 = 2880; call = inactive
tea [SID104185902] — firefly Hh reporter signal, replicate 1 = 40219; firefly Hh reporter signal, replicate 2 = 46659; Renilla reference signal, replicate 1 = 1820; Renilla reference signal, replicate 2 = 1684; call = inactive
tea [SID104186028] — firefly Hh reporter signal, replicate 1 = 99208; firefly Hh reporter signal, replicate 2 = 51352; Renilla reference signal, replicate 1 = 2656; Renilla reference signal, replicate 2 = 4058; call = inactive
CG42260 [SID104183964] — firefly Hh reporter signal, replicate 1 = 1.01e5; firefly Hh reporter signal, replicate 2 = 68262; Renilla reference signal, replicate 1 = 1824; Renilla reference signal, replicate 2 = 5958; call = inactive
CG42260 [SID104184177] — firefly Hh reporter signal, replicate 1 = 90912; firefly Hh reporter signal, replicate 2 = 75504; Renilla reference signal, replicate 1 = 1905; Renilla reference signal, replicate 2 = 6721; call = inactive
CG42582 (retired record) [SID104200467] — firefly Hh reporter signal, replicate 1 = 5.54e5; firefly Hh reporter signal, replicate 2 = 2.90e5; Renilla reference signal, replicate 1 = 31008; Renilla reference signal, replicate 2 = 6365; call = inactive
GstE9 [SID104186471] — firefly Hh reporter signal, replicate 1 = 1.14e5; firefly Hh reporter signal, replicate 2 = 50212; Renilla reference signal, replicate 1 = 3189; Renilla reference signal, replicate 2 = 4160; call = inactive

Reformatted: 2 of the entries above
{"Gene":"CG10344","PubChem SID":"SID104183858","firefly Hh reporter signal, replicate 1":90449,"firefly Hh reporter signal, replicate 2":94278,"Renilla reference signal, replicate 1":1352,"Renilla reference signal, replicate 2":7004,"call":"inactive"}
{"Gene":"CG2915","PubChem SID":"SID104186634","firefly Hh reporter signal, replicate 1":73949,"firefly Hh reporter signal, replicate 2":50466,"Renilla reference signal, replicate 1":3665,"Renilla reference signal, replicate 2":2307,"call":"inactive"}
